Test results as given in PubChem BioAssay AID2685 (National Center for Advancing Translational Sciences (NCATS), 2010).
The list shows a part of the results. These are further read-outs of the screen, such as a control signal, another cell line or another target. No call is given for them. Compounds called inactive in the main read-out are mostly missing here. The note in brackets gives the kind of curve behind each potency; many fits are weak.

Experiment: qHTS Assay for Lipid Storage Modulators in Drosophila S3 Cells;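 on cell number change: cells counted by Cell Tracker Red CMTPX staining in the red channel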
Settings: BODIPY lipid droplet fluorescence, 18-24 h; for cell number change: measured here: cell count max response, cells fed with added oleic acid
In short: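 Laser-scanning cytometry quantifies lipid droplet accumulation (500–530 nm total intensity; droplet/cell object ratio) in oleic acid-fed (400 uM added) Drosophila S3 cells treated with a concentration series. 20 uM Triacsin C defined 100% inhibition.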

[1] = measured here: lipid fluorescence (Fed channel) AC50, cells fed with added oleic acid
[2] = measured here: cell number channel AC50, cells fed with added oleic acid

Row | SMILES | cell number change | AC50 [1] | AC50 [2]
1 | CCOC(=O)/C=C1\CN(C(C)c2ccccc2)S(=O)(=O)c2ccccc21 (centres undefined) | 12.6% | 0.164 µM [falling, full curve, poor fit] | 
2 | Cc1occc1-c1nnc(SCC(=O)N(C)CCC#N)n1N | 8.38% | 3.26 µM [rising, single point] | 
3 | CCCCCN(C(=O)CCC(=O)OCC(=O)c1c(C)cc(C)cc1C)c1c(N)n(CCCC)c(=O)[nH]c1=O | 13.3% | 29.1 µM [rising, single point] | 
4 | O=C(NC(Cc1ccccc1)C(=O)NCCc1ccccn1)c1ccccc1 (centres undefined) | -20.5% |  | 
5 | O=C(CN1CCN(Cc2ccc3c(c2)OCO3)CC1)Nc1ccc(F)cc1 | 3.22% | 29.1 µM [rising, single point] | 
6 | O=C(CNS(=O)(=O)c1ccc(F)cc1)Nc1ccc(C(F)(F)F)cc1 | 44.4% | 29.1 µM [rising, single point] | 8.2 µM [rising, partial curve]
7 | CC(=O)N1c2ccc(S(=O)(=O)N3CCC(C(=O)NC4CCC(C)CC4)CC3)cc2CC1C (centres undefined) | 12% |  | 
8 | CC(=O)N1N=C(c2ccc(Cl)cc2)OC1(C)C | 23.7% | 23.1 µM [falling, single point] | 
9 | Cc1ccc(S(=O)(=O)c2c(COC(=O)c3ccccc3Cl)c(-c3ccccc3)nn2C)cc1 | -11.2% |  | 
10 | CCOc1cc(C(=O)OCC(=O)Nc2cc(C)on2)ccc1OCC(C)C | -11.4% |  | 
11 | CC1CCN(C(NC(=O)c2ccco2)C(=O)c2ccccc2)CC1 (centres undefined) | -3.45% |  | 2.31 µM [rising, partial curve]
12 | Cc1ccc(C)n1-c1ccc(C(=O)NCc2cccnc2)cc1 | 58.9% |  | 18.4 µM [rising, single point]
13 | COc1ccccc1OCCNC(=O)C1CCN(C(C)=O)CC1 | -0.451% |  | 
14 | CCOc1ccc(NC(=S)NCCCn2ccnc2)cc1 | 12.7% | 2.06 µM [rising, partial curve, poor fit] | 
15 | Cc1ccc(NC(=O)c2ccc(CSc3nnc(-c4ccncc4)n3C)cc2)c(C)c1 | 22.4% |  | 
16 | N#Cc1cccc(NC(=O)c2ccc(S(=O)(=O)N3CCOCC3)cc2)c1 | 20.2% | 3.26 µM [falling, full curve, poor fit] | 
17 | CC(=O)c1cccc(NC(=O)c2cc(-c3cccs3)on2)c1 | -7.98% | 0.13 µM [falling, full curve, poor fit] | 
18 | C=C(Cl)COc1ccc2c(CCC)cc(=O)oc2c1 | 104% | 0.58 µM [rising, full curve] | 1.3 µM [rising, full curve]
19 | Cc1cccc(C)c1OCCCCN1CCCCC1 | 0.246% | 0.291 µM [rising, partial curve, poor fit] | 

Sorted by molar mass (ascending): three of the compounds above
Row | SMILES | cell number change | AC50 [1] | AC50 [2]
14 | CCOc1ccc(NC(=S)NCCCn2ccnc2)cc1 | 12.7% | 2.06 µM [rising, partial curve, poor fit] | 
2 | Cc1occc1-c1nnc(SCC(=O)N(C)CCC#N)n1N | 8.38% | 3.26 µM [rising, single point] | 
16 | N#Cc1cccc(NC(=O)c2ccc(S(=O)(=O)N3CCOCC3)cc2)c1 | 20.2% | 3.26 µM [falling, full curve, poor fit] | 
